# Results are given in words; binding and its absence hold for the method and conditions named. Binding seen in cells or lysates may run through a third protein. Some results given as binding are weak or reduced against the parent protein; the word gives no strength. Sequences can lack the tags named with a protein.
# Amino acid sequences for entries named in this document (tags omitted).
# UniProt P84077: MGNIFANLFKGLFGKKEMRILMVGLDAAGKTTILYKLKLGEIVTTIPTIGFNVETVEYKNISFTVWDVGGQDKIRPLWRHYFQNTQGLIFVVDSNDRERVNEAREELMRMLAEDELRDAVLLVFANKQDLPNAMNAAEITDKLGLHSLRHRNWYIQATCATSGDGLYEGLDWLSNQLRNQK
# Target: T1, GST-GGA1-GAT (UniProt Q9UJY5)
# T1 sequence: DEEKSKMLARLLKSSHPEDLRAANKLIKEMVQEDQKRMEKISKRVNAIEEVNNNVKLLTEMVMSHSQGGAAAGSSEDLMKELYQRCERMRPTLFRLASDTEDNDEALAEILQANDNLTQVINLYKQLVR
# Experiment: pull-down; GST-GGA1-GAT immobilised on glutathione sepharose beads, incubated with BON cell extracts (RIPA buffer) for 2 hrs at 4°C; bound Arf1 detected by western blotting; cells serum starved 12 hrs, then untreated or treated with DMSO, Brefeldin A, IGF-1, BMS-536924, LY-294,002, MK-2206, Rapamycin or PD98059 for 4 hrs; only the target purified
substance,measurement,value
"Arf1 (active, GTP-bound) (from UniProt P84077 1-181)",binding,binds

# Source: PMC4420598
